{"source": "the supplement of paper PMC3334620", "note": "Whole data set: some 33,000 sequences, median “E-score (-0.5 to 0.5)” near -0.0014, cut for the highest 2% near 0.25. The list shows a part of the results."}
{"biological_target": "T1, Cad1 (UniProt P24813)", "T1 sequence": "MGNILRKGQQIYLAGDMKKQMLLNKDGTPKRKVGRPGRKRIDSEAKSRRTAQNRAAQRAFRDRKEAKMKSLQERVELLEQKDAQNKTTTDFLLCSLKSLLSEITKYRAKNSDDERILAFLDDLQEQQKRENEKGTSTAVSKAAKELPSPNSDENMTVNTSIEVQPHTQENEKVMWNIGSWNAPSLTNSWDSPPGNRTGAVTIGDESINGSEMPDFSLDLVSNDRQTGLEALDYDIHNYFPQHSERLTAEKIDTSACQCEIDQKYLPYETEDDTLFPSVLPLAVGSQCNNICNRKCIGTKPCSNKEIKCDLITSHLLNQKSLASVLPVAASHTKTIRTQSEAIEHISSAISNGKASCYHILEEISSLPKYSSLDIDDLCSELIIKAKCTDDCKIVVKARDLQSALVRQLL", "test": "PBM E-score (8-mer binding enrichment) (E-score (-0.5 to 0.5)); higher = stronger / more preferred TF binding", "conditions": "protein concentration: 100 nM; construct: GST-full length", "in_short": "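The E-score, a modified Wilcoxon-Mann-Whitney statistic, was computed by the Universal PBM Analysis Suite for every ungapped eight-base word pooled with its reverse complement. Scans behind it were normalised with masliner after bound GST-tagged yeast transcription factors were detected with fluorescent anti-GST. The proteins, at about 100-200 nM, had been applied to universal all-10-mer Agilent arrays made double-stranded by primer extension.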"}
{"sequence": "CCATATCA", "PBM E-score": -0.00962}
{"sequence": "CGACCCGC", "PBM E-score": 0.0365}
{"sequence": "CACTCGGC", "PBM E-score": 0.099}
{"sequence": "AGTCTTTC", "PBM E-score": -0.142}
{"sequence": "CCTCGGGA", "PBM E-score": -0.0314}
{"sequence": "AACTACTC", "PBM E-score": 0.112}
{"sequence": "CCGGTAGG", "PBM E-score": -0.106}
{"sequence": "GCTTCTCA", "PBM E-score": -0.17}
{"sequence": "AAGCGAAT", "PBM E-score": 0.167}
{"sequence": "AACTTTAC", "PBM E-score": 0.207}
{"sequence": "ATGCACCA", "PBM E-score": -0.128}
{"sequence": "GCACATCC", "PBM E-score": -0.168}
{"sequence": "CGTTCCGA", "PBM E-score": 0.131}
{"sequence": "ACCCTACG", "PBM E-score": -0.179}
{"sequence": "AGTCATAC", "PBM E-score": -0.11}
{"sequence": "ACCGGGAT", "PBM E-score": -0.01}
{"sequence": "ACAAAGAT", "PBM E-score": 0.162}
{"sequence": "AGGCTGTA", "PBM E-score": -0.0168}
{"sequence": "CGTACCCC", "PBM E-score": 0.14}
{"sequence": "GTCGCAAA", "PBM E-score": -0.0126}
{"sequence": "ATCCTCTC", "PBM E-score": 0.0816}
{"sequence": "GGGAGGCA", "PBM E-score": -0.227}
{"sequence": "AATTCCTA", "PBM E-score": 0.174}
{"sequence": "CTAGGCAG", "PBM E-score": -0.145}
{"sequence": "ACATTATC", "PBM E-score": 0.274}
{"sequence": "CGACCAGC", "PBM E-score": -0.00892}
{"sequence": "CCACAACA", "PBM E-score": -0.227}
{"sequence": "ACATGGAA", "PBM E-score": 0.0464}
{"sequence": "ACACCGGT", "PBM E-score": -0.0648}
{"sequence": "GAGTCACA", "PBM E-score": -0.0761}
{"sequence": "ACGGTACC", "PBM E-score": 0.0154}
{"sequence": "ATGTACAA", "PBM E-score": -0.0603}
{"sequence": "CTATGCAA", "PBM E-score": 0.0112}
{"sequence": "CTCCAGTA", "PBM E-score": 0.0745}
{"sequence": "ACAATATA", "PBM E-score": 0.17}
{"sequence": "TAACCAGA", "PBM E-score": 0.0749}
{"sequence": "ACTGCCAT", "PBM E-score": 0.0518}
{"sequence": "CGCTCCTC", "PBM E-score": -0.292}
{"sequence": "GCACGTAC", "PBM E-score": -0.0894}
{"sequence": "ACACTTTC", "PBM E-score": 0.208}
{"sequence": "ATACAAAA", "PBM E-score": 0.201}
{"sequence": "ATGCGAGC", "PBM E-score": -0.168}
{"sequence": "ACTCTGCT", "PBM E-score": -0.0461}
{"sequence": "CCACACTC", "PBM E-score": 0.133}
{"sequence": "CCCCCTCA", "PBM E-score": -0.427}
{"sequence": "CATAGGGA", "PBM E-score": -0.0487}
{"sequence": "GCTGTGTA", "PBM E-score": -0.0713}
{"sequence": "CTCTAAGC", "PBM E-score": 0.128}
{"sequence": "ACAAAGAC", "PBM E-score": 0.0187}
{"sequence": "CCGAATAG", "PBM E-score": 0.0011}
{"sequence": "ACGCAGTG", "PBM E-score": -0.0997}
{"sequence": "ACCCCAAC", "PBM E-score": -0.0236}
{"sequence": "ACGTGGAT", "PBM E-score": 0.0134}
{"sequence": "CATCAGTC", "PBM E-score": -0.0425}
{"sequence": "ACCTAGGC", "PBM E-score": -0.201}
{"sequence": "AAGCTCTC", "PBM E-score": -0.265}
{"sequence": "AGTGGGGA", "PBM E-score": -0.274}
{"sequence": "TTCCCGAA", "PBM E-score": 0.0119}
{"sequence": "TCCTACGA", "PBM E-score": -0.118}
{"sequence": "ACGCTATA", "PBM E-score": -0.0553}
{"sequence": "ATATTTTG", "PBM E-score": 0.246}
{"sequence": "ACTGTGTA", "PBM E-score": 0.106}
{"sequence": "AGTTACTC", "PBM E-score": 0.175}
{"sequence": "CCCGTATA", "PBM E-score": 0.0295}
{"sequence": "ATGTCTCA", "PBM E-score": -0.01}
{"sequence": "ATATATAA", "PBM E-score": 0.32}
{"sequence": "AAATTGAC", "PBM E-score": 0.0948}
{"sequence": "CCTTTTAG", "PBM E-score": -0.193}
{"sequence": "GACGTAAC", "PBM E-score": 0.0222}
{"sequence": "GTGTAGGA", "PBM E-score": -0.0617}
{"sequence": "AGATTGAC", "PBM E-score": 0.0226}
{"sequence": "AAATTATC", "PBM E-score": 0.246}
{"sequence": "CGTTTGAC", "PBM E-score": -0.136}
{"sequence": "AGCAGAAG", "PBM E-score": -0.0937}
{"sequence": "ACAGGCGC", "PBM E-score": 0.018}
{"sequence": "GAAGGATA", "PBM E-score": -0.0804}
{"sequence": "GCGGGTTA", "PBM E-score": -0.0942}
{"sequence": "GAGCGCAA", "PBM E-score": 0.115}
{"sequence": "TCGTATCA", "PBM E-score": 0.142}
{"sequence": "CGAGTCAC", "PBM E-score": -0.195}
{"sequence": "CCGCGAGA", "PBM E-score": -0.102}
{"sequence": "ATTTCTAG", "PBM E-score": 0.0493}
{"sequence": "ACCCAGGA", "PBM E-score": -0.184}
{"sequence": "CCCACATA", "PBM E-score": -0.179}
{"sequence": "CAGTTCAA", "PBM E-score": 0.00708}
{"sequence": "AACCAAAA", "PBM E-score": 0.0326}
